The list shows a part of the results.
test system: T1, CTL2-GFP (C. trachomatis L2/434/Bu, GFP-expressing); design: species or system HeLa; Intracellular C. trachomatis growth in HeLa cells, bulk GFP fluorescence relative to DMSO; conditions: bulk GFP, single well; 28.5 h, 10 µM; inhibitor
T1 construct: L2/434/Bu, GFP-expressing

| SMILES | % of control remaining [%] |
| --- | --- |
| CN(C)Cc1cc(C[C@@H]2C[C@H](NCc3ccccn3)C2(C)C)no1 [CBK289313] | 140.602 |
| CNCCc1ccccc1Sc1ccccc1 [CBK027155G] | 129.027 |
| Cc1nn(CC(C)C(=O)N2CCCC(CN(C)C)C2)c(C)c1Cl (stereo not drawn) [CBK282186] | 124.003 |
| Cc1cc2nc(-c3cc(NC(=O)/C=C/c4cccc([N+](=O)[O-])c4)ccc3O)oc2cc1C [CBK263438] | 108.895 |
| CCc1cccc2c(/C=C3/SC(=S)N(CC(=O)O)C3=O)c[nH]c12 [CBK264937] | 100 |
| COc1ccc(CN2CCc3cc(OC)c(OC)cc3C2c2ccccc2)cc1CO (stereo not drawn) [CBK286358] | 106.766 |
| CC(=O)N1CCN(C(=O)Cn2ccc3ccccc32)CC(O)C1 (stereo not drawn) [CBK307552] | 101.264 |
| COc1ccc(CN2Cc3nc[nH]c3C[C@H]2C(=O)NCc2ccccc2)c2ccccc12 [CBK288976] | 110.948 |
| O=[N+]([O-])c1cccc(CN2CCC(N3CCN(Cc4ccccc4)CC3)CC2)c1 [CBK264609G] | 115.98 |
| CC(C)n1c(=O)n(C(=O)c2ccco2)c2cccnc21 [CBK283856] | 92.249 |
| O=C(NCCc1cccs1)Nc1ccccc1 [CBK269917] | 109.798 |
| Cc1cc(C(=O)NC(C)c2ccccn2)c2ccccc2n1 (stereo not drawn) [CBK281826] | 94.1798 |
| O=C(N1CCC(Oc2nccnc2OCc2ccc(Cl)cc2F)CC1)C(F)(F)F [CBK164142] | 98.9941 |
| COc1cccc(COc2nccnc2-c2ccc(C)cc2C)c1OC [CBK106995] | 90.9521 |
| Clc1ccc2c(c1)CCC(NCC1COc3ccccc3O1)C2 (stereo not drawn) [CBK013077C] | 107.82 |
| O=C1NCCCC12CCN(Cc1ccccc1N1CCCCC1)CC2 [CBK284878] | 118.684 |
| Cc1ccc(-c2nnc3c4ccccc4c(C)nn23)cc1S(=O)(=O)NC(C)c1ccccc1 (stereo not drawn) [CBK266715] | 169.42 |
| CC(NC(=O)c1cc(C(F)(F)F)n(C)n1)c1cccnc1 (stereo not drawn) [CBK282203] | 121.892 |
| O=C(Cc1ccccc1)Nc1ccc(NC(=O)c2ccc(-c3ccccc3)cc2)cc1 [CBK268821] | 147.577 |
| O=c1[nH]c2ncc(-c3ccsc3)nc2n1-c1ccc2[nH]ccc2c1 [CBK064650] | 172.493 |
| Cc1c(C(=O)N2CCN(C3CCN(C)CC3)CC2)nnn1-c1cccc(C(F)(F)F)c1 [CBK149088] | 125.211 |
| CN(Cc1cnc(-c2ccncc2)cn1)C1CCN(C(=O)OC(C)(C)C)CC1 [CBK172979] | 102.78 |
| O=C(O)c1ccc(CNCCc2ccccc2)cc1 [CBK287215] | 128.707 |
| O=C1CCC(=O)N1CCn1c(=O)n(S(=O)(=O)c2cccc(Cl)c2)c2ccccc21 [CBK106493] | 105.663 |
| Cc1nn2cc(CNC(=O)CN3CCOc4ccccc4C3)nc2s1 [CBK306921] | 144.647 |
| Cc1cc(OC(=O)C2CCC(CNC(=O)OC(C)(C)C)CC2)c2c3c(c(=O)oc2c1)CCCC3 (stereo not drawn) [CBK083590] | 95.2143 |

Single values from above:
Entry for Cc1cc2nc(-c3cc(NC(=O)/C=C/c4cccc([N+](=O)[O-])c4)ccc3O)oc2cc1C [CBK263438] under % of control remaining [%]: 108.895
Entry for O=C(N1CCC(Oc2nccnc2OCc2ccc(Cl)cc2F)CC1)C(F)(F)F [CBK164142] under % of control remaining [%]: 98.9941
Entry for O=C(Cc1ccccc1)Nc1ccc(NC(=O)c2ccc(-c3ccccc3)cc2)cc1 [CBK268821] under % of control remaining [%]: 147.577

Following part.

| SMILES | % of control remaining [%] |
| --- | --- |
| CC(C)(C)n1cc(NC2CCN(c3ccc(C#N)cc3)C2=O)cn1 (stereo not drawn) [CBK306445] | 108.328 |
| CC(C)CC(=O)N1CCN(C(=O)c2ccc(F)cc2)CC1 [CBK003603] | 138.541 |
| Cc1cc(=O)c2ccccc2n1CC(=O)N1CCC2(CCO2)CC1 [CBK306809] | 136.242 |
| O=C(O)/C(=C\c1ccccc1)NC(=O)c1cccc([N+](=O)[O-])c1 [CBK263348] | 113.906 |
| COc1ccc(S(=O)(=O)N2CCC(C(=O)Nc3cccc(F)c3)CC2)cc1C [CBK267987] | 124.761 |
| c1ccc2c(c1)CCN(c1nc3cc4c(cc3s1)OCCO4)C2 [CBK287498] | 139.854 |
| O=C(c1ccco1)N1CCC(c2ccnc3nc4ccccc4n23)CC1 [CBK284490] | 130.467 |
| Cn1nc(C2CC2)cc1NC(=O)NCC1CCN(c2ccccc2F)C1 (stereo not drawn) [CBK304380] | 124.838 |
| CCN1CCN(C(=O)CN(CC)S(=O)(=O)c2ccc(Cl)cc2)CC1 [CBK268461] | 91.049 |
| Cc1ccc(CC(=O)N2CCCCC2c2ncc(-c3cccc(F)c3)[nH]2)cn1 (stereo not drawn) [CBK291152] | 102.495 |
| CN1CCN(CCOC(=O)N2CCCC(F)(F)C2)CC1 [CBK200208] | 103.15 |
| O=C(OCc1cccc(C(=O)c2ccccc2)c1)c1ccc(-c2nnc(-c3ccccc3)o2)cc1 [CBK267852] | 87.9517 |
| Nc1ccc(OCc2nc3ccccc3n2CC(=O)O)cc1 [CBK270099] | 132.175 |
| CCCN1CCC(NC(C)CCCC(C)(C)O)CC1 (stereo not drawn) [CBK261932] | 101.263 |
| Cc1ccc(S(=O)(=O)NC[C@H]2O[C@@H](CC(=O)N3CCCC3)[C@H](O)[C@@H]2O)cc1 [CBK288910] | 111.929 |
| COc1ccc(S(=O)(=O)N(C)CC(=O)N2CCN(C)CC2)cc1C [CBK268105] | 109.2 |
| O=C(O)C1CCN(C(=O)CCC(=O)N2CCN(c3ccccc3)CC2)CC1 [CBK286896] | 116.772 |
| Cc1c(CN(Cc2cccc(F)c2)CC2CCCO2)cnn1C (stereo not drawn) [CBK282953] | 86.1113 |
| COc1ccc2cc(CN(CCNC(=O)OC(C)(C)C)C(=O)NC3CCCCC3)c(=O)[nH]c2c1 [CBK132074] | 145.757 |
| Cc1noc(C(C)C)c1C(=O)NC(C)c1cccc(Br)c1 (stereo not drawn) [CBK296618] | 95.2898 |
| CCC(=O)N(Cc1cc2cc(C)ccc2nc1O)c1ccc(C)c(C)c1 [CBK265381] | 116.348 |
| Cc1ccc(-n2ncc3c(=O)n(CC(=O)NC4CCCCC4)cnc32)cc1 [CBK287536] | 122.159 |
| CCCCCOc1ccc(Nc2ccc(-c3cccc(Cl)c3Cl)cn2)cc1 [CBK036856] | 91.7322 |
| O=[N+]([O-])c1ccc(CN2CCC(Oc3nccnc3OCCN3CCOCC3)CC2)cc1 [CBK082923T] | 144.012 |
| CCCNC(=O)c1ccc(NC(=O)NC(CC)c2ccnn2C)c(C)c1 (stereo not drawn) [CBK307608] | 114.919 |
| COc1ccc(C)cc1NC(=O)NC1CCN(Cc2ccccc2)CC1 [CBK267095] | 153.32 |

| SMILES | % of control remaining [%] |
| --- | --- |
| N#Cc1cnn2c(O)cc(Cc3ccccc3)nc12 [CBK287942] | 99.0336 |
| Nc1nc2c(nc(OCc3ccccc3)n2C2OC(CO)C(O)C2O)c(=O)[nH]1 (stereo not drawn) [CBK201247] | 134.501 |
| O=C(CCN1CCCCC1)NCC1OCCc2ccccc21 (stereo not drawn) [CBK013619] | 122.371 |
| CC(Oc1ccc(/C=N/n2cnnc2)cc1)C(=O)O (stereo not drawn) [CBK263927] | 129.612 |
| c1csc(Sc2nc3ccccc3nc2N2CCCC2)c1 [CBK115225] | 121.472 |
| CC(C)(C)c1nnc(NS(=O)(=O)c2ccc([N+](=O)[O-])cc2)s1 [CBK045500] | 95.8257 |
| COc1ccccc1CN(Cc1cccnc1)C(=O)CCN1CCCO1 [CBK306959] | 105.855 |
| Cc1cc(Cl)cc(Cl)c1S(=O)(=O)Nc1nc(CC(=O)O)cs1 [CBK000573] | 73.0013 |
| CN1CCN(C(=O)Cn2cc(C(=O)Nc3ccc(F)cc3)ccc2=O)C(c2ccccc2)C1 (stereo not drawn) [CBK286050] | 140.257 |
| CN(C)CC(=O)N/N=C/c1ccsc1 [CBK008256C] | 99.6203 |
| O=C(CSc1nnnn1C1CC1)c1cc2ccccc2o1 [CBK297158] | 117.67 |
| Cc1ccc(S(=O)(=O)N[C@H]2CO[C@H]3[C@@H]2OC[C@@H]3n2nnnc2Oc2ccccc2)cc1 [CBK289485] | 124.117 |
| c1cc(-c2n[nH]c(C3CCNCC3)n2)ccn1 [CBK104676C] | 119.786 |
| O=C(c1ccccc1)N1C[C@@H](c2ccsc2)[C@@H]2CN(Cc3ccccc3Cl)CC[C@@H]21 [CBK285613] | 68.4162 |
| FC(F)(F)c1cccnc1OCCN1CCOCC1 [CBK113456] | 133.799 |
| Cc1ccc(Nc2cc(-c3cccnc3)ncn2)cc1NS(C)(=O)=O [CBK091147] | 170.052 |
| COc1cccc2cc(C(=O)NCc3cccs3)oc12 [CBK149799] | 97.8554 |
| CCC1(CC)OC(N[C@@H](C)c2ccc(Br)cc2)=NC1=O [CBK126665] | 88.7562 |
| Cc1oc(C)c(C(=O)Nc2cccc(C(=O)O)c2)c1C(=O)Nc1cccc(C(=O)O)c1 [CBK266472] | 168.778 |
| CC(Oc1cccc(Br)c1)C(=O)NCCC(=O)O (stereo not drawn) [CBK268024] | 132.955 |
| CCOC(=O)Cn1[nH]c(CO)c(Cc2c(Cl)cccc2Cl)c1=O [CBK103580] | 114.158 |
| COc1ncc(-c2nccnc2OCCc2c[nH]c3ccccc23)c(OC)n1 [CBK106743] | 165.451 |
| COc1ccc(-c2cnccc2-n2ccnc2)cn1 [CBK177147] | 144.265 |
| Cc1cc(C)nc(NC(=O)OCc2cc(C)nc(C)c2)c1 [CBK138231] | 131.549 |
| CC(C)Nc1cccnc1N1CCN(C(=O)c2cc3cc(NS(=O)(=O)CCc4ccncc4)ccc3[nH]2)CC1 [CBK012661] | 115.537 |
| COc1ccc(C(=O)N2CCN(C)CC2)cc1Nc1cncc(-c2cc3ccccc3o2)n1 [CBK155266T] | 100 |

Arranged by SMILES length (largest number first): some entries from above.

| SMILES | % of control remaining [%] |
| --- | --- |
| COc1ccc(S(=O)(=O)N(C)CC(=O)N2CCN(C)CC2)cc1C [CBK268105] | 109.2 |
| CCC1(CC)OC(N[C@@H](C)c2ccc(Br)cc2)=NC1=O [CBK126665] | 88.7562 |
| O=C(O)c1ccc(CNCCc2ccccc2)cc1 [CBK287215] | 128.707 |

Source: publication PMC12040169 (PLOS Biology, 2025)
